US20040259122A1
Results are given in words; binding and its absence hold for the method and conditions named. In cells and extracts the contact can be indirect. Some entries that bind do so weakly or less than the wild type.

How the values were obtained:
[1] = biological target: GST-p53 fusion protein treated with PCAF for Lys320 acetylation (UniProt P04637); experiment: GST pull-down (FIG. 29)
[2] = biological target: GST-p53 fusion protein treated with PCAF for Lys320 acetylation (UniProt P04637); experiment: GST pull-down on glutathione beads, 35S-labelled in vitro translated protein, SDS-PAGE and fluorography

binding [1]: binds | binding [2]: binds
Substance: 35S-labelled, in vitro translated PIASxα (from UniProt O75928 1-572)
